Patent publication US7906486B2, “Method of treating or preventing tissue deterioration, injury or damage due to disease of mucosa” (SciClone Pharmaceuticals, Inc., priority 2007, dated 2011)
Where “and” joins values, the source holds several entries; their conditions need not be identical. Equal entries are not always repeated. The source gives many values for each of these; only a part stands here.

Assay: Weights and survival (Example 3, SCI-03)
Assay type: in vivo, Syrian Golden Hamsters
Settings: individual animals
Description: All animals were weighed daily and their survival recorded, in order to assess possible differences in animal weight among treatment groups as an indication for mucositis severity and/or possible toxicity resulting from the treatments.
There were no significant differences in weight changes between study groups. The mean daily percent weight change data was evaluated. The saline treated control hamsters gained an average of 76.3% of their starting weight during the study. Hamsters in the group receiving SCV-07 at 100 μg/kg on days −1 to 29 gained an average of 80.7% of their starting weight during the study. Hamsters in the group receiving SCV-07 at 100 μg/kg on days of radiation only gained an average of 66.3% of their starting weight during the study. Hamsters in the group receiving SCV-07 at 100 μg/kg on day −1, day 4, day 5 and days 10-29 gained an average of 69.7% of their starting weight during the study. The significance of these differences was evaluated by calculating the area-under-the-curve (AUC) for the weight gain of each animal, and then comparing the different treatment groups using a One-Way ANOVA test.

## N[C@H](CCC(=O)N[C@@H](Cc1c[nH]c2ccccc12)C(=O)O)C(=O)O [SCV-07, γ-D-glutamyl-L-tryptophan]
Group 3 (SCV-07 on days of radiation 0-3 and 6-9), day 18
  Animal weight: 117 and 109 and 137 and 101 and 104 (2×) and 102 and 108 (2×) and 87
Group 3 (SCV-07 on days of radiation 0-3 and 6-9), day 19
  Animal weight: 122 and 112 and 138 and 105 and 108 and 106 and 111 and 113 and 107 and 90
Group 3 (SCV-07 on days of radiation 0-3 and 6-9), day 20
  Animal weight: 123 and 114 (2×) and 141 and 107 (2×) and 109 and 108 and 112 and 90
Group 3 (SCV-07 on days of radiation 0-3 and 6-9), day 21
  Animal weight: 124 and 115 and 141 and 108 (2×) and 109 (2×) and 114 (2×) and 93
Group 3 (SCV-07 on days of radiation 0-3 and 6-9), day 22
  Animal weight: 127 and 114 and 144 and 108 and 112 and 111 (2×) and 115 and 118 and 93
Group 3 (SCV-07 on days of radiation 0-3 and 6-9), day 23
  Animal weight: 127 and 121 and 152 and 113 (3×) and 118 and 120 and 114 and 96
Group 3 (SCV-07 on days of radiation 0-3 and 6-9), day 24
  Animal weight: 128 and 122 and 148 and 114 and 115 (3×) and 120 and 121 and 95
Group 3 (SCV-07 on days of radiation 0-3 and 6-9), day 25
  Animal weight: 128 and 121 (2×) and 150 and 115 and 116 (2×) and 122 and 114 and 95
Group 3 (SCV-07 on days of radiation 0-3 and 6-9), day 26
  Animal weight: 131 and 124 (2×) and 153 and 119 (2×) and 117 and 122 and 120 and 97
Group 3 (SCV-07 on days of radiation 0-3 and 6-9), day 27
  Animal weight: 133 and 125 and 158 and 119 (3×) and 124 and 126 and 222 and 97
Group 3 (SCV-07 on days of radiation 0-3 and 6-9), day 28
  Animal weight: 134 and 127 and 158 and 122 and 121 (2×) and 125 and 128 and 120 and 100
Group 3 (SCV-07 on days of radiation 0-3 and 6-9), day 29
  Animal weight: 132 and 126 (2×) and 158 and 122 (2×) and 120 and 128 and 121 and 99
Group 3 (SCV-07 on days of radiation 0-3 and 6-9), day 30
  Animal weight: 135 and 130 and 162 and 126 and 122 and 125 (2×) and 129 and 132 and 102
Group 3 (SCV-07 on days of radiation 0-3 and 6-9), day 31
  Animal weight: 138 and 132 and 165 and 128 (2×) and 123 and 131 and 134 and 125 and 104
Group 3 (SCV-07 on days of radiation 0-3 and 6-9), day 32
  Animal weight: 139 and 133 and 165 and 128 (2×) and 124 and 130 and 131 and 134 and 103
Group 3 (SCV-07 on days of radiation 0-3 and 6-9), day 33
  Animal weight: 143 and 136 and 172 and 133 (2×) and 127 and 132 and 140 and 131 and 107
Group 3 (SCV-07 on days of radiation 0-3 and 6-9), day 34
  Animal weight: 143 and 136 and 171 and 134 (2×) and 127 and 133 and 138 and 131 and 107
Group 3 (SCV-07 on days of radiation 0-3 and 6-9), day 35
  Animal weight: 144 and 137 and 170 and 135 (2×) and 128 and 134 and 140 and 132 and 110
Group 3 (SCV-07 on days of radiation 0-3 and 6-9), day −1
  Animal weight: 87 (2×) and 76 (2×) and 93 and 78 and 80 (2×) and 84 and 79
Group 4 (SCV-07 on days −1, 4, 5 and 10-29), day 0
  Animal weight: 84 and 88 and 85 and 89 (2×) and 90 and 91 and 94 and 73 and 87
Group 4 (SCV-07 on days −1, 4, 5 and 10-29), day 1
  Animal weight: 85 and 90 (2×) and 82 and 87 and 89 and 91 and 92 and 72 and 86
Group 4 (SCV-07 on days −1, 4, 5 and 10-29), day 2
  Animal weight: 89 and 91 (2×) and 96 and 90 and 92 (2×) and 97 and 73 and 85
Group 4 (SCV-07 on days −1, 4, 5 and 10-29), day 3
  Animal weight: 90 and 94 (3×) and 87 and 86 and 97 and 98 and 73 and 88
Group 4 (SCV-07 on days −1, 4, 5 and 10-29), day 4
  Animal weight: 93 and 94 and 85 and 91 and 97 and 96 and 95 and 99 and 73 and 87
Group 4 (SCV-07 on days −1, 4, 5 and 10-29), day 5
  Animal weight: 94 and 99 and 89 and 97 and 104 and 98 (2×) and 106 and 76 and 87
Group 4 (SCV-07 on days −1, 4, 5 and 10-29), day 6
  Animal weight: 96 and 102 and 92 and 99 and 107 and 101 (2×) and 106 and 79 and 90
Group 4 (SCV-07 on days −1, 4, 5 and 10-29), day 7
  Animal weight: 97 and 103 (2×) and 93 and 101 and 110 and 102 and 109 and 78 and 92
Group 4 (SCV-07 on days −1, 4, 5 and 10-29), day 8
  Animal weight: 98 and 105 and 91 and 103 and 108 and 102 (2×) and 106 and 79 and 89
Group 4 (SCV-07 on days −1, 4, 5 and 10-29), day 9
  Animal weight: 101.2 and 110.3 and 95.3 and 108.6 and 111.7 and 104.7 and 106.7 and 110.6 and 80.7 and 90.6
Group 4 (SCV-07 on days −1, 4, 5 and 10-29), day 10
  Animal weight: 102 and 110 (2×) and 95 and 114 and 108 (2×) and 112 and 80 and 89
Group 4 (SCV-07 on days −1, 4, 5 and 10-29), day 11
  Animal weight: 104 and 112 and 96 and 110 and 115 and 107 and 109 and 114 and 78 and 90
Group 4 (SCV-07 on days −1, 4, 5 and 10-29), day 12
  Animal weight: 105 and 116 and 97 and 115 (2×) and 117 and 109 and 112 and 82 and 93
Group 4 (SCV-07 on days −1, 4, 5 and 10-29), day 13
  Animal weight: 107 and 116 and 97 and 117 (2×) and 119 and 110 and 113 and 81 and 88
Group 4 (SCV-07 on days −1, 4, 5 and 10-29), day 14
  Animal weight: 105 and 116 and 96 and 118 and 121 and 110 and 113 and 117 and 83 and 88
Group 4 (SCV-07 on days −1, 4, 5 and 10-29), day 15
  Animal weight: 106 and 116 and 96 and 120 and 122 and 111 and 113 and 119 and 83 and 89
Group 4 (SCV-07 on days −1, 4, 5 and 10-29), day 16
  Animal weight: 109 and 117 and 96 and 122 and 124 and 112 and 113 and 121 and 86 and 94
Group 4 (SCV-07 on days −1, 4, 5 and 10-29), day 17
  Animal weight: 111 and 117 and 96 and 123 and 127 and 113 and 114 and 122 and 87 and 97
Group 4 (SCV-07 on days −1, 4, 5 and 10-29), day 18
  Animal weight: 112 and 114 and 95 and 122 and 127 and 115
Group 4 (SCV-07 on days −1, 4, 5 and 10-29), day 19
  Animal weight: 118 and 120 and 98 and 128 and 132 and 119
Group 4 (SCV-07 on days −1, 4, 5 and 10-29), day 20
  Animal weight: 118 (2×) and 121 and 99 and 128 and 133
Group 4 (SCV-07 on days −1, 4, 5 and 10-29), day 21
  Animal weight: 120 (2×) and 124 and 101 and 131 and 136
Group 4 (SCV-07 on days −1, 4, 5 and 10-29), day 22
  Animal weight: 124 (2×) and 102 and 133 and 134 and 122
Group 4 (SCV-07 on days −1, 4, 5 and 10-29), day 23
  Animal weight: 124 and 127 and 105 and 135 and 137 and 123
Group 4 (SCV-07 on days −1, 4, 5 and 10-29), day 24
  Animal weight: 123 and 128 and 107 and 138 (2×) and 124
Group 4 (SCV-07 on days −1, 4, 5 and 10-29), day 25
  Animal weight: 125 and 131 and 108 and 139 and 140 and 128
Group 4 (SCV-07 on days −1, 4, 5 and 10-29), day 26
  Animal weight: 126 and 134 and 110 and 142 and 143 and 128
Group 4 (SCV-07 on days −1, 4, 5 and 10-29), day 27
  Animal weight: 129 and 134 and 114 and 143 and 144 and 131
Group 4 (SCV-07 on days −1, 4, 5 and 10-29), day 28
  Animal weight: 131 (2×) and 136 and 114 and 145 and 146
Group 4 (SCV-07 on days −1, 4, 5 and 10-29), day 29
  Animal weight: 131 (2×) and 134 and 112 and 146 and 144
Group 4 (SCV-07 on days −1, 4, 5 and 10-29), day 30
  Animal weight: 133 and 138 and 116 and 150 and 149 and 136
Group 4 (SCV-07 on days −1, 4, 5 and 10-29), day 31
  Animal weight: 136 (2×) and 142 and 118 and 152 and 151
Group 4 (SCV-07 on days −1, 4, 5 and 10-29), day 32
  Animal weight: 138 (2×) and 142 and 119 and 153 and 152
Group 4 (SCV-07 on days −1, 4, 5 and 10-29), day 33
  Animal weight: 141 (2×) and 146 and 122 and 158 and 157
Group 4 (SCV-07 on days −1, 4, 5 and 10-29), day 34
  Animal weight: 140 (2×) and 147 and 122 and 157 and 158
Group 4 (SCV-07 on days −1, 4, 5 and 10-29), day 35
  Animal weight: 141 (2×) and 146 and 124 and 158 and 159
Group 4 (SCV-07 on days −1, 4, 5 and 10-29), day −1
  Animal weight: 80 and 85 (2×) and 82 and 87 (2×) and 84 and 89 and 70 and 81
